Assay results reported in paper PMC11884560.
Results are given in words; binding and its absence hold for the method and conditions named. Some results given as binding are weak or reduced against the parent protein; the word gives no strength. Where a sequence is shown, tags or fusion partners need not be part of it.

Amino acid sequences for entries named in this document (tags omitted). Residues count along the entry.
UniProt Q14126, residues 50-609: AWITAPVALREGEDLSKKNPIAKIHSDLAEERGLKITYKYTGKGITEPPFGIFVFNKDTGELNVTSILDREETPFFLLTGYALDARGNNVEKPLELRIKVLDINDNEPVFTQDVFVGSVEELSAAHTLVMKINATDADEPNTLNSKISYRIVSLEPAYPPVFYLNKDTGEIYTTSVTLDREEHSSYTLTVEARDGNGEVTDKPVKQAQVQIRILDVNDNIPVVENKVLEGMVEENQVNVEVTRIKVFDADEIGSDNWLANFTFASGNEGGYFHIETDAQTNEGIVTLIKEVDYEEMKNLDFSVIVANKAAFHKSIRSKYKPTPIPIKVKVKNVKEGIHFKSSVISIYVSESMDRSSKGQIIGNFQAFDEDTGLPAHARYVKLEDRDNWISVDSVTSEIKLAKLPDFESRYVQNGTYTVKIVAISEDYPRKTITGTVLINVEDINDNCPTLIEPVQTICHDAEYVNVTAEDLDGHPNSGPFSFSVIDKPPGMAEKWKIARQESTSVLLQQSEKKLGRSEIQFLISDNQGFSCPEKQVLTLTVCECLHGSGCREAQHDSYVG

Target: purified extracellular domains of DSG2 (UniProt Q14126)
Assay: ELISA; direct ELISA: purified DSG2‐ECD or 5Q‐ECD immobilised on a 96‐well plate, S9Fc in solution, detected with HRP‐conjugated anti‐IgG; both purified

- binding: binds
B1: Siglec‐9‐Fc (Fc fusion, UniProt Q9Y336 18-348)
chain: QTSKLLTMQSSVTVQEGLCVHVPCSFSYPSHGWIYPGPVVHGYWFREGANTDQDAPVATNNPARAVWEETRDRFHLLGDPHTKNCTLSIRDARRSDAGRYFFRMEKGSIKWNYKHHRLSVNVTALTHRPNILIPGTLESGCPQNLTCSVPWACEQGTPPMISWIGTSVSPLDPSTTRSSVLTLIPQPQDHGTSLTCQVTFPGASVTTNKTVHLNVSYPPQNLTMTVFQGDGTVSTVLGNGSSLSLPEGQSLRLVCAVDAVDSNPPARLSLSWRGLTLCPSQPSNPGVLELPWVHLRDAAEFTCRAQNPLGSQQVYLNVSLQSKATSGVTQGGSGGGGS
